Source: the supplement of paper PMC10849652
The list shows a part of the results.

The chains behind the UniProt entries cited, without tags or fusion partners. Where a name states a change or a piece, a line headed by the entry shows the natural chain unless it says otherwise.
UniProt Q8NG68: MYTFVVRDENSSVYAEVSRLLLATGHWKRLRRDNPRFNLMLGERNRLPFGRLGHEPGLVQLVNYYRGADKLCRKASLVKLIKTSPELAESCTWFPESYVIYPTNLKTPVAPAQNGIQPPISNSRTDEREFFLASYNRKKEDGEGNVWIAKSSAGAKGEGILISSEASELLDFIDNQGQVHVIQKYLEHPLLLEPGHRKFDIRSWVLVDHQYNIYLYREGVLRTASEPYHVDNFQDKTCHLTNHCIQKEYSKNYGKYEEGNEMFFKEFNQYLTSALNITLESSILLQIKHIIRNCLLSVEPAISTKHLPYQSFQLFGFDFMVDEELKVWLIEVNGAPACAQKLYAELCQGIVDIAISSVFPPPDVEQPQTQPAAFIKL
UniProt Q7Z6J9: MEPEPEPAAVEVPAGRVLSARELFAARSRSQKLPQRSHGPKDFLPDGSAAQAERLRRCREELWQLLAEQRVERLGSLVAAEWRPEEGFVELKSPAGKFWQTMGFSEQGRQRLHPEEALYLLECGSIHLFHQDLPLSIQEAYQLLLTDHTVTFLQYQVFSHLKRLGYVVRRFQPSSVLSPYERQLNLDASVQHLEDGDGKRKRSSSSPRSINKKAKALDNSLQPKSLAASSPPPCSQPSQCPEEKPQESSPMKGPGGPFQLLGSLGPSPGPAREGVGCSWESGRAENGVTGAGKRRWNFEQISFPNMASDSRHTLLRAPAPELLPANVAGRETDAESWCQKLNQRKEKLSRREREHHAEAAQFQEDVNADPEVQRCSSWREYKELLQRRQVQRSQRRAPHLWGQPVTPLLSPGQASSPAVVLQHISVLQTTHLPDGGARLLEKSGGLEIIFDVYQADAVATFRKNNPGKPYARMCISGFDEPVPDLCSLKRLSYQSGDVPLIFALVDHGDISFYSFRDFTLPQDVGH
UniProt P0CG48, whole entry, looked up: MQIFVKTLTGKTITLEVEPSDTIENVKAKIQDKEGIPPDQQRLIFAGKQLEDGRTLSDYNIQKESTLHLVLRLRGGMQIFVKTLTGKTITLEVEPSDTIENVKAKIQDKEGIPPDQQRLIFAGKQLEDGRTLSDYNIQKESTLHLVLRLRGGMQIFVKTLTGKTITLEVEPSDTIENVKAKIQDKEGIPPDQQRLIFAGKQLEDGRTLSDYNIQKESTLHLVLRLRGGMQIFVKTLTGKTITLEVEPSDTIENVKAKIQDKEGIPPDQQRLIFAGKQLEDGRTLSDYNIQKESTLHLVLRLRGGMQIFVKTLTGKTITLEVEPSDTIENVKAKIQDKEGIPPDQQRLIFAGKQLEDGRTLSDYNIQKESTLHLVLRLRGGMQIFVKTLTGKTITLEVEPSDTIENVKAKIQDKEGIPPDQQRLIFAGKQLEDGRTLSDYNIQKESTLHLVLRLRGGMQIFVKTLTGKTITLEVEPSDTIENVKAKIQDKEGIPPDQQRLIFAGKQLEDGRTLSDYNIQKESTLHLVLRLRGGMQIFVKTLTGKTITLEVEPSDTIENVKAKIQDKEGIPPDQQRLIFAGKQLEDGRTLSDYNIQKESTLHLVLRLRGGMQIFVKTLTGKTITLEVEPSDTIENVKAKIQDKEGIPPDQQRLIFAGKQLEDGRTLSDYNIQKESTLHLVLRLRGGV
UniProt P61077: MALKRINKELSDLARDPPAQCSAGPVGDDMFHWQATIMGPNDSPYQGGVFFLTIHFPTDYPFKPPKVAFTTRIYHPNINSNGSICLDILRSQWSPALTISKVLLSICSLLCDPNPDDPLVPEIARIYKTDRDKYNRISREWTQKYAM
UniProt Q5T6F2: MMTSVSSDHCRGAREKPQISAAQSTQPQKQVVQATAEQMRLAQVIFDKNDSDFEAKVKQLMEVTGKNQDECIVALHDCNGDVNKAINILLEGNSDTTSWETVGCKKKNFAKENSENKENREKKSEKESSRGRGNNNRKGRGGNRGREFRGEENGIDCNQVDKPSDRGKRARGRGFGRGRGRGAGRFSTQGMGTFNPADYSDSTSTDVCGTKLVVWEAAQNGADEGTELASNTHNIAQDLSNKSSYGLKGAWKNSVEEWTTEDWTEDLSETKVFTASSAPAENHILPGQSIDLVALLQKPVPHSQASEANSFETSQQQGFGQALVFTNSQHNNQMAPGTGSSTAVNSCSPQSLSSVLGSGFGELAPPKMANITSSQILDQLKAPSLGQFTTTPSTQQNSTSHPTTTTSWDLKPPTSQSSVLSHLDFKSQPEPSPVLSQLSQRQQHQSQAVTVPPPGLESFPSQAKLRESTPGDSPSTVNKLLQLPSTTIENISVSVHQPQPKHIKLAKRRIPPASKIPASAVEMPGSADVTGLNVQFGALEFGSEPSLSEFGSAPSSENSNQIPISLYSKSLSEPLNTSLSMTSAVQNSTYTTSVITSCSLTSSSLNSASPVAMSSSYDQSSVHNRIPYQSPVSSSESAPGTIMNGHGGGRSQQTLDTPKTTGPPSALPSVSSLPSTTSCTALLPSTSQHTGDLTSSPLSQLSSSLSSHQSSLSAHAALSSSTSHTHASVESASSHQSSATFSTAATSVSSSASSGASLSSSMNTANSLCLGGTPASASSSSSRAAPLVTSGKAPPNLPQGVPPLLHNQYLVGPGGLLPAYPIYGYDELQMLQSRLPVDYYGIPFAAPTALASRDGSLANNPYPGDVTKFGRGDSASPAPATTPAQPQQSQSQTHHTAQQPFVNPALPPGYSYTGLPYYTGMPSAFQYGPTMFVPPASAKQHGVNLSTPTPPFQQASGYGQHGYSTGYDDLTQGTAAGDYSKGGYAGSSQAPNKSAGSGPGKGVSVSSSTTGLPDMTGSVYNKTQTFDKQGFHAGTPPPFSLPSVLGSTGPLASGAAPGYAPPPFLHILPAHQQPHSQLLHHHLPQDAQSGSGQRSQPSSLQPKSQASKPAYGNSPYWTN
UniProt O43396: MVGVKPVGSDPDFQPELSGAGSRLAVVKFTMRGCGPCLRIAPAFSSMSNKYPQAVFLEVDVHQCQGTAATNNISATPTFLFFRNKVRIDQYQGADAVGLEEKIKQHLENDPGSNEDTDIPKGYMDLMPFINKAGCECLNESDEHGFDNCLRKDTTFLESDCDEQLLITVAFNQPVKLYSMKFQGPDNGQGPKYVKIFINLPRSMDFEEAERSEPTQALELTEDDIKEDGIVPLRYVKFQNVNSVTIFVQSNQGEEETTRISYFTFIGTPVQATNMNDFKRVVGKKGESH
UniProt Q8TBC4: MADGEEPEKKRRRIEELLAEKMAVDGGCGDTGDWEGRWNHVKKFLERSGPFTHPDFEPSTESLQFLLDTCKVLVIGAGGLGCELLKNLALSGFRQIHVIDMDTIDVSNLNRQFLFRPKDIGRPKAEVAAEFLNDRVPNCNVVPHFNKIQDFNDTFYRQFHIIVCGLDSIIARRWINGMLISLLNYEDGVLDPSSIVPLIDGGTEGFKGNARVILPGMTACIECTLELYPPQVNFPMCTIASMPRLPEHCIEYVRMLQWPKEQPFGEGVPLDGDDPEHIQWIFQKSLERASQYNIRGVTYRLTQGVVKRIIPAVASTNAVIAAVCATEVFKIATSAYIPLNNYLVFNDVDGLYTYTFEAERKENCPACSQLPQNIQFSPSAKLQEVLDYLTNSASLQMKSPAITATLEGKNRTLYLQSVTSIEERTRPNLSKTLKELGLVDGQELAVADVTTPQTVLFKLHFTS
UniProt Q9Y385: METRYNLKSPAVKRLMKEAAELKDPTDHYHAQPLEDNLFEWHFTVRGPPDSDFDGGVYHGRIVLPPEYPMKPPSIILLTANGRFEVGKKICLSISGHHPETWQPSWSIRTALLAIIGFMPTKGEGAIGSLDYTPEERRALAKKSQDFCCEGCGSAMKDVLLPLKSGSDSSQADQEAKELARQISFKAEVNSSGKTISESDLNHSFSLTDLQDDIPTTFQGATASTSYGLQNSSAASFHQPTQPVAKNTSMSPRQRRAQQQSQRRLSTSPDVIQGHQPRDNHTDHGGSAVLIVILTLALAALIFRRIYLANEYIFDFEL
UniProt A6NHL2: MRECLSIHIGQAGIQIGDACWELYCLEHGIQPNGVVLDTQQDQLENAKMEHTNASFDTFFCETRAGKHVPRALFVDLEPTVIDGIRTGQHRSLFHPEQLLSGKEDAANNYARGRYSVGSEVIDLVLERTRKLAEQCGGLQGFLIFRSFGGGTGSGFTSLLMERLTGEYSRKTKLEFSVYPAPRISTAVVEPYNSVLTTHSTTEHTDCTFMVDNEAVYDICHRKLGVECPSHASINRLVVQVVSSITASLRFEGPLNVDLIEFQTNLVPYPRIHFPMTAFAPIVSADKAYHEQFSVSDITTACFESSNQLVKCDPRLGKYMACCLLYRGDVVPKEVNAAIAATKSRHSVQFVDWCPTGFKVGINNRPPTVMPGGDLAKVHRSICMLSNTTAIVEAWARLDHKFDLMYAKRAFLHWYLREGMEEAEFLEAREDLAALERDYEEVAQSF
UniProt Q9BRA2: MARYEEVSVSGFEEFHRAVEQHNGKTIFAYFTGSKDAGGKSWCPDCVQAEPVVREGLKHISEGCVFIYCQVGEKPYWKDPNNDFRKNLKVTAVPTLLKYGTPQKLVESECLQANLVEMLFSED
UniProt Q969M7: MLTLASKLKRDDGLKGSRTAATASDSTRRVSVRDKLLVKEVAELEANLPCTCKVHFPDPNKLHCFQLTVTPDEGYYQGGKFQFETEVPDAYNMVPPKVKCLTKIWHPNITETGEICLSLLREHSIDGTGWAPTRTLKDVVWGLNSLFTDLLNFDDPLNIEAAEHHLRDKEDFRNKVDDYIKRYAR
UniProt P0DPH7, whole entry, looked up: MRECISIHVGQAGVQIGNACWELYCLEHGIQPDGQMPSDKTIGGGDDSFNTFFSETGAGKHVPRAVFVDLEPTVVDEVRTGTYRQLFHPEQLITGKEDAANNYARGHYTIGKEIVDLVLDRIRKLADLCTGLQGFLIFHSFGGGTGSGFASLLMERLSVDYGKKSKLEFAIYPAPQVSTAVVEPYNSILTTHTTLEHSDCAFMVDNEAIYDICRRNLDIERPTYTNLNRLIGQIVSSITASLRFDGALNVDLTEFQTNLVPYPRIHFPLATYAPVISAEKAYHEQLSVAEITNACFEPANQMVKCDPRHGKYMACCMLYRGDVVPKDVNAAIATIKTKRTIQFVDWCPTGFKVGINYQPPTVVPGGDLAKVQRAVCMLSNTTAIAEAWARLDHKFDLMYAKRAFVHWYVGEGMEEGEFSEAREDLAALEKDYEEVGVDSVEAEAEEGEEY
UniProt Q9NUQ3: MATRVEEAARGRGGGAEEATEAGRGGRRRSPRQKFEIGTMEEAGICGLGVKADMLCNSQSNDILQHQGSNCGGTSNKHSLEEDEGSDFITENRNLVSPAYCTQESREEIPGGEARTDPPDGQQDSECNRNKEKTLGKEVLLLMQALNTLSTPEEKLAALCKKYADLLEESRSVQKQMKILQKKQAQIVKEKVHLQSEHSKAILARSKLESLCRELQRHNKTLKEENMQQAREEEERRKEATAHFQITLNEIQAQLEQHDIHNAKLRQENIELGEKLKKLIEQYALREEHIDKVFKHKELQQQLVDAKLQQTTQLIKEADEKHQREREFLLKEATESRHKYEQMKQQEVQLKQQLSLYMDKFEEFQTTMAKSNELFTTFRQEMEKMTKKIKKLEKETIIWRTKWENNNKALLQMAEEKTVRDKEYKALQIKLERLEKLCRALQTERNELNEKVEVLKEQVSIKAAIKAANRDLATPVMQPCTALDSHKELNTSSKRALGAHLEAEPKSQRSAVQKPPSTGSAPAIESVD

How the values were obtained:
Assay in all cases: log2 fold change, soluble protein after heating vs DMSO (PISA); higher = thermal stabilisation; K562 cells, 10 uM, 30 min; active = over 0.2 and 3.5 SD of the protein, either way, in both replicates (recomputed)
[1] = compound: NC(=O)Nc1cc(-c2cccc(F)c2)sc1C(=O)N[C@H]1CCCNC1
Outline: (§1)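 Aliquots of K562 cells (2×10^6 cells/mL) treated with 10 μM compound for 30 min were heated for 3 min over 48°C-58°C. After pooling and extraction in PBS with 0.5% NP-40 at 4°C, soluble protein from a 21,000xg, 90 min spin was quantified by TMTpro 16plex LC-MS/MS with channel sums equalised. Thermal stability is expressed against control samples, from duplicates, as a log2 fold change.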

[2] = compound: NC(=O)c1cnc(N[C@@H]2CCCC[C@@H]2N)nc1Nc1cccc(-n2nccn2)c1
Outline: as §1

[3] = compound: NC1(c2ccc(-c3nc4ccn5c(=O)[nH]nc5c4cc3-c3ccccc3)cc2)CCC1
Outline: as §1

[4] = compound: NCC(=O)Nc1ccc(-n2nc(C(F)(F)F)cc2-c2ccc3c(ccc4ccccc43)c2)cc1
Outline: as §1

[5] = compound: Nc1ccccc1NC(=O)c1ccc(CNC(=O)OCc2cccnc2)cc1 [entinostat]
Outline: as §1

[6] = compound: O=C(CCCCCCC(=O)Nc1ccccc1)NO [vorinostat]
Outline: as §1

[7] = compound: O=C(CCCCCCNC(=O)c1cnc(N(c2ccccc2)c2ccccc2Cl)nc1)NO [citarinostat]
Outline: as §1

[8] = compound: O=C(O)c1ccc2c(c1)nc(Nc1cccc(Cl)c1)c1ccncc12 [silmitasertib]
Outline: as §1

[9] = compound: O=C1NC(=O)C(c2cnc3ccccn23)=C1c1cn2c3c(cc(F)cc13)CN(C(=O)N1CCCCC1)CC2
Outline: as §1

[10] = compound: c1cc(OCCN2CCCCC2)cc(-c2n[nH]c3ccc(-c4nnc[nH]4)cc23)c1
Outline: as §1

Measured: log2 fold change

TTL (UniProt Q8NG68)
inactive: [1] -0.011 | [2] 0.01 | [3] -0.048 | [4] 0.064 | [5] -0.002 | [6] 0.025 | [7] -0.042 | [8] 0.064 | [9] 0.021 | [10] 0.095

TSEN54 (UniProt Q7Z6J9)
inactive: [1] -0.062 | [2] -0.084 | [3] 0.041 | [4] 0.204 | [5] 0.113 | [6] 0.052 | [7] -0.038 | [8] -0.006 | [9] -0.234 | [10] 0.076

UBC (UniProt P0CG48)
inactive: [1] -0.003 | [2] -0.022 | [3] 0.214 | [4] 0.01 | [5] -0.023 | [6] -0.11 | [7] -0.13 | [8] -0.076 | [9] -0.117 | [10] -0.068

UBE2D3 isoform 3 (UniProt P61077)
inactive: [1] 0 | [2] -0.056 | [3] -0.096 | [4] -0.052 | [5] -0.005 | [6] 0.033 | [7] 0.081 | [8] -0.022 | [9] -0.063 | [10] -0.035

UBAP2 (UniProt Q5T6F2)
inactive: [1] -0.011 | [2] 0.022 | [3] 0.05 | [4] 0.016 | [5] -0.025 | [6] -0.023 | [7] 0.029 | [8] 0.008 | [9] -0.029 | [10] 0.026

TXNL1 (UniProt O43396)
inactive: [1] -0.048 | [2] -0.013 | [3] -0.084 | [4] -0.015 | [5] 0.028 | [6] 0.018 | [7] 0.087 | [8] 0.074 | [9] -0.004 | [10] -0.03

UBA3 (UniProt Q8TBC4)
inactive: [1] -0.035 | [2] -0.037 | [3] -0.171 | [4] -0.002 | [5] 0.081 | [6] 0.121 | [7] 0.084 | [8] -0.039 | [9] -0.093 | [10] 0.029

3 successive records already listed:
UBAP2 (UniProt Q5T6F2)
inactive: [1] -0.011 | [2] 0.022 | [3] 0.05 | [4] 0.016 | [5] -0.025 | [6] -0.023 | [7] 0.029 | [8] 0.008 | [9] -0.029 | [10] 0.026

TXNL1 (UniProt O43396)
inactive: [1] -0.048 | [2] -0.013 | [3] -0.084 | [4] -0.015 | [5] 0.028 | [6] 0.018 | [7] 0.087 | [8] 0.074 | [9] -0.004 | [10] -0.03

UBA3 (UniProt Q8TBC4)
inactive: [1] -0.035 | [2] -0.037 | [3] -0.171 | [4] -0.002 | [5] 0.081 | [6] 0.121 | [7] 0.084 | [8] -0.039 | [9] -0.093 | [10] 0.029

Remaining list, next part.

UBE2J1 (UniProt Q9Y385)
inactive: [1] 0.031 | [2] -0.038 | [3] 0.07 | [4] 0.017 | [5] -0.077 | [6] -0.019 | [7] 0.041 | [8] 0.042 | [10] -0.09
active: [9] -0.375

TUBAL3 (UniProt A6NHL2)
inactive: [1] 0 | [2] -0.082 | [3] -0.006 | [4] 0.031 | [5] 0.061 | [6] 0.037 | [7] -0.06 | [8] 0.087 | [9] 0.059 | [10] -0.291

TXNDC17 (UniProt Q9BRA2)
inactive: [1] 0.02 | [2] 0.023 | [3] -0.002 | [4] 0.004 | [5] 0.027 | [6] 0.011 | [7] 0.038 | [8] -0.045 | [9] -0.017 | [10] -0.005

UBE2F isoform 2 (UniProt Q969M7)
inactive: [1] -0.01 | [2] -0.037 | [3] -0.006 | [4] 0.016 | [5] 0.015 | [6] 0.095 | [7] 0.04 | [8] 0.003 | [9] 0.003 | [10] 0.025

TUBA3C (UniProt P0DPH7)
inactive: [1] -0.01 | [2] 0.035 | [3] -0.068 | [4] -0.003 | [5] -0.02 | [6] 0.014 | [7] 0.157 | [8] -0.006 | [9] -0.037 | [10] -0.073

TXLNG (UniProt Q9NUQ3)
inactive: [1] 0.064 | [2] -0.048 | [3] -0.031 | [4] -0.03 | [5] 0.042 | [6] 0.011 | [7] 0.04 | [8] 0.003 | [9] -0.02 | [10] 0.003
